From doi:10.1101/870998 come the findings set out here.

Chains of the proteins cited; added tags and fusions are not shown.
UniProt Q15691: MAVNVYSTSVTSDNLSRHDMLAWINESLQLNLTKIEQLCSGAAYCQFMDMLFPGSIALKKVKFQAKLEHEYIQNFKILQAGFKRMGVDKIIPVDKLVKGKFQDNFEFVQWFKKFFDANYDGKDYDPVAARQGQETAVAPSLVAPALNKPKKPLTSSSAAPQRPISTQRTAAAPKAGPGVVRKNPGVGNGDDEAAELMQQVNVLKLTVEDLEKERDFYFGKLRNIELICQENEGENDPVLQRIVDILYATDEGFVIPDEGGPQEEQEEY

No constants are given. Whether binding was seen depends on the method and setting. In cells and extracts the contact can be indirect. Some binding calls cover weakened binding; strength is not graded here. Tags and fused reporters may be left off the sequences shown.

Holding throughout (test): co-IP
One assay has as its target T1, GFP-iASPP-RARA (UniProt Q8WUF5).
T1 sequence: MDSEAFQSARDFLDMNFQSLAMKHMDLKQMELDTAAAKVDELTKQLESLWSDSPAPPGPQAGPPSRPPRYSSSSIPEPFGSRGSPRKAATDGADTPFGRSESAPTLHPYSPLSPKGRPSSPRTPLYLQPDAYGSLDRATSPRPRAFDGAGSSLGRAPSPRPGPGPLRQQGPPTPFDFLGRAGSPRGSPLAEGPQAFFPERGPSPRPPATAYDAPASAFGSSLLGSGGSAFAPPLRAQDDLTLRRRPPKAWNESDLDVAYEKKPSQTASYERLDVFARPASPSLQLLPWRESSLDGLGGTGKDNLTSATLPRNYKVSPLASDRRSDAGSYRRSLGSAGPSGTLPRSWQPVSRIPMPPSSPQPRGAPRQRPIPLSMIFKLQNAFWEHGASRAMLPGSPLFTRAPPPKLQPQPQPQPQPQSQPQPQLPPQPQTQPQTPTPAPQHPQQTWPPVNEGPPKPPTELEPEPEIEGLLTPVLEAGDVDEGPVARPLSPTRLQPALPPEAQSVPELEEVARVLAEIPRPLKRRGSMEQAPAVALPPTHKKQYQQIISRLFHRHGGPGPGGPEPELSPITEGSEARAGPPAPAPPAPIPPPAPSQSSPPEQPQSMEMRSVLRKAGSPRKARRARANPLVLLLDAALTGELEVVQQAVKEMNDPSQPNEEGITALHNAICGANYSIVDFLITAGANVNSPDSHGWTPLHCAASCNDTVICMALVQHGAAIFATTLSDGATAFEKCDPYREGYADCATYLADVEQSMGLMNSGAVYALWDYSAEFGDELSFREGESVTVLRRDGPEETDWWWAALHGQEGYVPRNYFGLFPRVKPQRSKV

Assay [1] has as its target T2, GFP-iASPP C-terminal region (Cter, 600-828) (UniProt Q8WUF5).
T2 sequence: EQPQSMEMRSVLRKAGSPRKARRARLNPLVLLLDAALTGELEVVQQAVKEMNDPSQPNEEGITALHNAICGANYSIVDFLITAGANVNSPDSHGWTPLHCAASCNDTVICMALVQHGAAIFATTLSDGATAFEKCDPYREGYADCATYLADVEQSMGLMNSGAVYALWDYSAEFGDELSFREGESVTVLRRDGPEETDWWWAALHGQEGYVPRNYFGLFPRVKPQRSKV

Assay [2] deals with T3, GFP-iASPP Ank-SH3 (629-828) (UniProt Q8WUF5).
T3 sequence: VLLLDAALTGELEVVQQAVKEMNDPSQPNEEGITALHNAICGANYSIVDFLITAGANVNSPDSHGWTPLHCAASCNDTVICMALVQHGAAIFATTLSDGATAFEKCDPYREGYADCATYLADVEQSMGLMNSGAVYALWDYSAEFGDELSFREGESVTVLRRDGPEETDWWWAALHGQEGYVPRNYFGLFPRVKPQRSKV

The next assay addresses T4, GFP-iASPP 1-599 (UniProt Q8WUF5).
T4 sequence: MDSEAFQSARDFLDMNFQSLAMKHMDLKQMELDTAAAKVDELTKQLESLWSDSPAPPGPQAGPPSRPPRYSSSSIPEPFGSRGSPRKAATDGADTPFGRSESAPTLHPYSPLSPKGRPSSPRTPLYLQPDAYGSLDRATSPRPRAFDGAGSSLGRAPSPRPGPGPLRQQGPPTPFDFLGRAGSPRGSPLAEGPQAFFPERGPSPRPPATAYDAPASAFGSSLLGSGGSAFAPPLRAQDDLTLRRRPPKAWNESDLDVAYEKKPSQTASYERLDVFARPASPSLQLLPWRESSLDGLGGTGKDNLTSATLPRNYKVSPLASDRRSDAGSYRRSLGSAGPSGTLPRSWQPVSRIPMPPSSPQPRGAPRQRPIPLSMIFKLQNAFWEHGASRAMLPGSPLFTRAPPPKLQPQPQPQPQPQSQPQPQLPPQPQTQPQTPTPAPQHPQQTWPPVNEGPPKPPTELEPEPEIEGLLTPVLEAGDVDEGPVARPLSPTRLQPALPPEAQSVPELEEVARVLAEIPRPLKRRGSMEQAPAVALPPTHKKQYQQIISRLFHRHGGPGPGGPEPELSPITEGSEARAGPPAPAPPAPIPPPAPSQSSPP

Another assay addresses T5, GFP-iASPP 1-628 (UniProt Q8WUF5).
T5 sequence: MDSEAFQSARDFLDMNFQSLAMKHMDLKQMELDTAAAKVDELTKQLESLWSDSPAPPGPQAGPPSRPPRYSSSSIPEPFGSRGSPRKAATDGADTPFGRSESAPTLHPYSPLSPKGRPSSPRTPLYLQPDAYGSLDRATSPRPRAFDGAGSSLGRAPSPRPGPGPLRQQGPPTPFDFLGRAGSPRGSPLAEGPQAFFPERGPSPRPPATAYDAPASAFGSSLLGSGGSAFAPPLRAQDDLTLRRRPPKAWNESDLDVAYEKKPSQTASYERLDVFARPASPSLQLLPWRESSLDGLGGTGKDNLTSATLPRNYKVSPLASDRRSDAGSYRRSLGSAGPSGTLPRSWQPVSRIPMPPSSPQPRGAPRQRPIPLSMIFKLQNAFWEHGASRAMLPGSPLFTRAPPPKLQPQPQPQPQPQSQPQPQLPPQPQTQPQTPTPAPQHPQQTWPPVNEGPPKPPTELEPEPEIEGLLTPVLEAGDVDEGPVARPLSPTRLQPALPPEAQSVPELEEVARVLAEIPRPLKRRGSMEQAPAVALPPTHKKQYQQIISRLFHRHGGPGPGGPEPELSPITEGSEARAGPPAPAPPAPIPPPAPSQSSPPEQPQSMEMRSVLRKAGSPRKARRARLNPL

In a further assay the target is T6, GFP-iASPP 1-290 (UniProt Q8WUF5).
T6 sequence: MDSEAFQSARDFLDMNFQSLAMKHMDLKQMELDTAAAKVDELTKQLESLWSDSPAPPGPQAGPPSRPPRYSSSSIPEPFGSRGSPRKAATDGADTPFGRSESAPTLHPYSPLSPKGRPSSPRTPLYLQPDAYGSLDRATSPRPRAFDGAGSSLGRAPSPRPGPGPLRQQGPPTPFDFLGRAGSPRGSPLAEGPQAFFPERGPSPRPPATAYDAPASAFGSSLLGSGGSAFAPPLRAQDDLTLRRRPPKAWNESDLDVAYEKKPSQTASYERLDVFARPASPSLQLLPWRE

Consider “EB1 (endogenous) (from UniProt Q15691 1-268)”, for which, in the assay with GFP-iASPP-RARA, the binding result is given as “binds”.

B1: SF-iASPP 1-628 (domain or fragment, UniProt Q8WUF5 1-628)
chain: T5 sequence
On to B1, for which the binding entry in assay [1] and in assay [2] was “binds” each time.

B2: SF-iASPP 600-828 (domain or fragment, UniProt Q8WUF5 600-828)
chain: T2 sequence
Turning to B2, the binding entry with GFP-iASPP 1-599 and with GFP-iASPP 1-628 was “binds” throughout.

B3: SF-iASPP 629-828 (domain or fragment, UniProt Q8WUF5 629-828)
chain: T3 sequence
Take B3: the binding result with GFP-iASPP 1-290 is on record as “binds weakly”; with GFP-iASPP 1-599, “binds”; in the assay with GFP-iASPP 1-628 it was “binds”.

B4: SF-iASPP 1-599 (domain or fragment, UniProt Q8WUF5 1-599)
chain: T4 sequence
Turning to B4, the binding result in assay [1] and in assay [2] was “binds” in each case.

B5: SF-iASPP 1-290 (domain or fragment, UniProt Q8WUF5 1-290)
chain: T6 sequence
Turning to B5, the binding result in assay [2] was “binds weakly”.
